Test results reported in the supplement of paper PMC4371806.
In all, about 1,600 compounds were measured (“plate-normalized OD600 growth (mean of duplicates)”: median about 0.31, lowest 2% from about 0.23 on). Some of the results follow.

Tested on: Escherichia coli BW25113
Assay: plate-normalized OD600 growth (mean of duplicates) (OD600 (normalized)); higher = more growth (less inhibition)
Settings: 10 µM
Experimental: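 E. coli BW25113 in LB (100 µl, 96-well, no shaking) was exposed to 10 µM of each compound (here the ChemBridge subset of a ~30,000-member library) and grown at 37°C for 24 h or 15°C for 48 h, in duplicate. Growth was read as OD600 and the duplicate ODs were normalized across screening plates to correct plate-to-plate variation.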

Row | SMILES | plate-normalized OD600 growth (temperature: 15°C, 48 h) | plate-normalized OD600 growth (temperature: 37°C, 24 h)
1 | C=CCNc1nc(-c2ccncc2)cs1 | 0.236 | 0.589
2 | CS(=O)(=O)N(Cc1ccc(C(=O)Nc2cccnc2)cc1)c1ccccc1 | 0.264 | 0.621
3 | Cc1ccc(-c2cc3c(nn2)-c2ccccc2C3=O)cc1 | 0.25 | 0.641
4 | N#Cc1cc(Cc2ccc(N)c(C#N)c2)ccc1N | 0.251 | 0.591
5 | CCN(CC)C(=O)C1CCCN(C/C=C/c2ccccc2)C1 (stereo not given) | 0.24 | 0.611
6 | COc1ccc(N2C(=O)CC(Nc3ccc(N4CCCCC4)cc3)C2=O)cc1 (stereo not given) | 0.25 | 0.62
7 | CCN(CC)S(=O)(=O)c1cccc(C(=O)Nc2ccc(OC)cc2)c1 | 0.245 | 0.644
8 | c1ccc(CCN2CCN(c3ccccc3)CC2)cc1 | 0.227 | 0.62
9 | O=C(O)CSc1cccc(C(=O)Nc2ccc(Br)cc2)c1 | 0.249 | 0.611
10 | Cc1[nH]nc2c1C1(CCCCC1)C(C#N)=C(N)O2 | 0.258 | 0.629
11 | COc1ccc(Cl)cc1NC(=O)c1ccccc1Br | 0.222 | 0.627
12 | Cc1ccccc1C(=O)N1CCCCC1CO (stereo not given) | 0.294 | 0.624
13 | O=C(O)CCC(=O)Nc1ccc(-c2nc3ccccc3[nH]2)cc1 | 0.247 | 0.602
14 | CC(=O)N(C)c1ccc(NC(=O)c2ccc(-c3ccccc3)cc2)cc1 | 0.26 | 0.63
15 | COc1ccc(N(C(=O)c2ccc(F)cc2)C2=CC3CCC(C2)N3C)cc1 (stereo not given) | 0.247 | 0.619
16 | COCc1cc(=O)n2[nH]c(C)c(-c3ccc(OC)cc3)c2n1 | 0.252 | 0.612
17 | COc1cccc(OC)c1C(=O)NCC#N | 0.29 | 0.648
18 | Cc1ccc(OCCCCN2CCCCC2)cc1 | 0.264 | 0.635
19 | Cc1ccc(-c2csc(/C(C#N)=C/c3cccnc3)n2)c(C)c1 | 0.25 | 0.657
20 | CCN(CC)C(=O)C1CCCN(Cc2cccc([N+](=O)[O-])c2)C1 (stereo not given) | 0.249 | 0.606
21 | N#CC1=C(N)Oc2cc(O)ccc2C1c1cccc([N+](=O)[O-])c1 (stereo not given) | 0.251 | 0.596
22 | Cc1ccc(C(=O)c2ccccc2C(=O)O)c(O)c1 | 0.244 | 0.614

Row | SMILES | plate-normalized OD600 growth (temperature: 15°C, 48 h) | plate-normalized OD600 growth (temperature: 37°C, 24 h)
23 | N#CC1=C(N)Oc2cc(N)ccc2C1c1ccc(Br)s1 (stereo not given) | 0.262 | 0.636
24 | OC(CC#CCN1CCCC1)(c1ccccc1)c1ccccc1 | 0.253 | 0.615
25 | O=C(c1ccc([N+](=O)[O-])o1)N1CCN(c2cccc(Cl)c2)CC1 | 0.212 | 0.611
26 | CSc1nc2sc3c(c2c(=O)n1C)CCCC3 | 0.246 | 0.618
27 | Cc1ccc(N2C(=O)CC(N3CCN(c4ccccn4)CC3)C2=O)cc1Cl (stereo not given) | 0.236 | 0.637
28 | Cc1nc2c(-c3ccccc3)c(Cc3ccccc3)[nH]n2c(=O)c1Cl | 0.257 | 0.612
29 | O=C(c1ccco1)N1CCN(c2ccc([N+](=O)[O-])cc2)CC1 | 0.244 | 0.617
30 | CN1CCCN(Cc2cc(F)ccc2F)CC1 | 0.273 | 0.623
31 | CCC(C)(O)C#CCN1CCCCC1 (stereo not given) | 0.242 | 0.628
32 | O=S1(=O)CCC(N2CCOCC2)C1 (stereo not given) | 0.267 | 0.612
33 | CC(Oc1cccc2cccnc12)C(=O)NN (stereo not given) | 0.254 | 0.628
34 | COc1ccc(NCc2ccncc2)cc1 | 0.253 | 0.629
35 | CC(=O)Nc1ccc(S(=O)(=O)N2CCN(Cc3ccc(F)cc3)CC2)cc1 | 0.236 | 0.606
36 | O=C(O)C12CC3CC(CC(O)(C3)C1)C2 | 0.244 | 0.645
37 | COc1cc(CN2CC(C)CC(C)C2)cc(I)c1O (stereo not given) | 0.252 | 0.644
38 | COc1ccc(NCc2ccc(Cl)cc2Cl)cc1OC | 0.22 | 0.625
39 | CCC1=C(O)c2ccccc2C(=O)C1=O | 0.25 | 0.6
40 | C=CCSc1nc2c(cc1C#N)CCCC2 | 0.254 | 0.623
41 | O=C(Nc1cc(F)c(F)cc1Cl)N1CCN(c2ccc([N+](=O)[O-])cc2)CC1 | 0.232 | 0.615
42 | COc1ccccc1N1C(=O)CC(N2CCOCC2)C1=O (stereo not given) | 0.25 | 0.604
43 | CC(=O)Nc1ccc(C(=O)Nc2ccc(I)cc2)cc1 | 0.262 | 0.635
44 | Cc1ccc(C(=O)Nc2cccc(O)c2)cc1 | 0.237 | 0.606

A draw from above in order of count of non-hydrogen atoms, low to high:
Row | SMILES | plate-normalized OD600 growth (temperature: 15°C, 48 h) | plate-normalized OD600 growth (temperature: 37°C, 24 h)
32 | O=S1(=O)CCC(N2CCOCC2)C1 (stereo not given) | 0.267 | 0.612
31 | CCC(C)(O)C#CCN1CCCCC1 (stereo not given) | 0.242 | 0.628
39 | CCC1=C(O)c2ccccc2C(=O)C1=O | 0.25 | 0.6
40 | C=CCSc1nc2c(cc1C#N)CCCC2 | 0.254 | 0.623
44 | Cc1ccc(C(=O)Nc2cccc(O)c2)cc1 | 0.237 | 0.606
22 | Cc1ccc(C(=O)c2ccccc2C(=O)O)c(O)c1 | 0.244 | 0.614
38 | COc1ccc(NCc2ccc(Cl)cc2Cl)cc1OC | 0.22 | 0.625
42 | COc1ccccc1N1C(=O)CC(N2CCOCC2)C1=O (stereo not given) | 0.25 | 0.604
29 | O=C(c1ccco1)N1CCN(c2ccc([N+](=O)[O-])cc2)CC1 | 0.244 | 0.617
24 | OC(CC#CCN1CCCC1)(c1ccccc1)c1ccccc1 | 0.253 | 0.615
28 | Cc1nc2c(-c3ccccc3)c(Cc3ccccc3)[nH]n2c(=O)c1Cl | 0.257 | 0.612
41 | O=C(Nc1cc(F)c(F)cc1Cl)N1CCN(c2ccc([N+](=O)[O-])cc2)CC1 | 0.232 | 0.615

Pulled one by one from the list above, 3 records:
Row | SMILES | plate-normalized OD600 growth (temperature: 15°C, 48 h) | plate-normalized OD600 growth (temperature: 37°C, 24 h)
30 | CN1CCCN(Cc2cc(F)ccc2F)CC1 | 0.273 | 0.623
32 | O=S1(=O)CCC(N2CCOCC2)C1 (stereo not given) | 0.267 | 0.612
28 | Cc1nc2c(-c3ccccc3)c(Cc3ccccc3)[nH]n2c(=O)c1Cl | 0.257 | 0.612

Later entries:

Row | SMILES | plate-normalized OD600 growth (temperature: 15°C, 48 h) | plate-normalized OD600 growth (temperature: 37°C, 24 h)
45 | O=C(O)c1ccc(NS(=O)(=O)c2cccc(C(=O)Nc3ccccc3)c2)cc1 | 0.245 | 0.603
46 | O=C(Nc1cccc(F)c1)c1cc(F)c(F)cc1Cl | 0.26 | 0.621
47 | O=C(O)CCCNC(=O)c1ccncc1 | 0.254 | 0.622
48 | CCCCOC(=O)Nc1ccc(C)cc1C | 0.24 | 0.607
49 | N#CC(=Cc1cc(Cl)ccc1O)c1nc2ccccc2[nH]1 | 0.262 | 0.643
50 | CCOc1ccccc1NC(=O)c1ccc(C)cc1 | 0.249 | 0.601
51 | O=C(Nc1ccc2c(c1)oc1ccccc12)c1ccncc1 | 0.256 | 0.623
52 | N#CCCN(CCN1CCCC1)S(=O)(=O)c1cccc2nsnc12 | 0.253 | 0.624
53 | CCN(CC)CCN(C)C1CCN(C)CC1 | 0.256 | 0.612
54 | COc1ccc2nc(C)c3c(c2c1)OC(C)C3 (stereo not given) | 0.244 | 0.623
55 | CN(C)CCN(C)Cc1cccc(Cl)c1Cl | 0.235 | 0.632
56 | O=C(CC(=O)c1ccc([N+](=O)[O-])cc1)Nc1ccccc1Cl | 0.252 | 0.606
57 | COc1ccc(C(=O)CCN(C)C)cc1 | 0.25 | 0.615
58 | Cc1ccc(OCCCCc2c(C)n[nH]c2C)cc1 | 0.276 | 0.62
59 | O=C(NCCc1ccccc1)c1cccc(F)c1 | 0.251 | 0.61
60 | C=CCN(C(=O)c1ccccc1)c1ccc(OC)cc1 | 0.267 | 0.629
61 | COc1ccccc1N1C(=O)CC(N2CCN(Cc3ccccc3)CC2)C1=O (stereo not given) | 0.251 | 0.609
62 | CC(=O)NS(=O)(=O)c1ccc(NS(=O)(=O)c2ccccc2[N+](=O)[O-])cc1 | 0.265 | 0.624
63 | COc1ccc(CNC2C3CC4CC(C3)CC2C4)c(OC)c1 (stereo not given) | 0.224 | 0.615
64 | Cc1cc(C)c(S(=O)(=O)Nc2cc(C)on2)c(C)c1 | 0.243 | 0.612
65 | CCCN(CCC)S(=O)(=O)c1ccc(C)c([N+](=O)[O-])c1 | 0.27 | 0.638
66 | CN(C)/C=C/c1c(C=O)c2cc([N+](=O)[O-])ccc2n1C | 0.238 | 0.596

Row | SMILES | plate-normalized OD600 growth (temperature: 15°C, 48 h) | plate-normalized OD600 growth (temperature: 37°C, 24 h)
67 | CCN(C(=O)c1cccc(Br)c1)c1ccccc1 | 0.242 | 0.615
68 | CC(=O)Nc1ccc(C(=O)Nc2ccc(F)cc2)cc1 | 0.256 | 0.626
69 | Fc1ccccc1OCCSc1nc2ccccc2o1 | 0.249 | 0.6
70 | Cc1cc(=O)n2cccc(O)c2n1 | 0.248 | 0.63
71 | N[n+]1cnn(CC(=O)c2ccccc2[N+](=O)[O-])c1 | 0.257 | 0.624
72 | CCN(CC)C(=O)C1CCCN(Cc2ccc(Cl)cc2Cl)C1 (stereo not given) | 0.247 | 0.616
73 | CC(C)(C)NCc1ccc([N+](=O)[O-])cc1 | 0.266 | 0.622
74 | CC(=O)c1nc2ccccc2n1Cc1ccccc1 | 0.234 | 0.608
75 | O=C(NCCCNc1ccc([N+](=O)[O-])cc1)c1ccc(F)cc1 | 0.242 | 0.621
76 | O=C(c1ccc(Br)o1)n1cnc2ccccc21 | 0.29 | 0.627
77 | O=[N+]([O-])c1ccc(N2CCN(CCO)CC2)cc1 | 0.238 | 0.603
78 | CCCC(=O)NC(c1ccccc1)c1ccccc1 | 0.265 | 0.637
79 | CCCCOc1ccc(C2(C)CC(=O)NC2=O)cc1 (stereo not given) | 0.258 | 0.634
80 | C=CCSc1nc(O)cc(=O)n1C | 0.24 | 0.611
81 | CCc1nc2ccccc2c(NC(=O)CN2CCCCCC2)c1C | 0.245 | 0.616
82 | N#C/C(=C\c1cccs1)c1nc(-c2cccs2)cs1 | 0.236 | 0.583
83 | COc1ccc(OC)c(NC(=O)c2cccnc2)c1 | 0.262 | 0.624
84 | CCSc1nc(O)c(C(C)CC)c(=O)[nH]1 (stereo not given) | 0.248 | 0.608
85 | O=Cc1ccc(-c2ccc(Cl)c(C(=O)O)c2)o1 | 0.268 | 0.622
86 | CN1CCN(C(=O)c2sc3cc(Cl)ccc3c2Cl)CC1 | 0.256 | 0.615
87 | COc1ccc(-c2cc(C3CC3)nc(SC)c2C#N)cc1 | 0.249 | 0.61
88 | Cn1c(NC(=O)c2ccc(F)cc2)nc2ccccc21 | 0.267 | 0.619

Row | SMILES | plate-normalized OD600 growth (temperature: 15°C, 48 h) | plate-normalized OD600 growth (temperature: 37°C, 24 h)
89 | Cc1ccc(C)c(N2CCN(C3Cc4ccccc4C3)CC2)c1 | 0.251 | 0.616
90 | CC(=O)Nc1ccc(NC(=O)CCCC(=O)O)cc1 | 0.253 | 0.618
91 | Cc1cccc(N2C(=O)CC(N3CCN(Cc4ccccc4)CC3)C2=O)c1 (stereo not given) | 0.254 | 0.616
92 | Cc1occc1C(=O)N1CCN(c2ccc([N+](=O)[O-])cc2)CC1 | 0.262 | 0.639
93 | COc1ccc(CN2CCN(c3ccccn3)CC2)cc1C | 0.236 | 0.638
94 | O=C(Nc1nc(/C=C/c2ccccc2)[nH]c(=O)n1)NS(=O)(=O)c1ccccc1Cl | 0.249 | 0.587
95 | NC(=O)CC(NC(=O)c1ccco1)C(=O)O (stereo not given) | 0.232 | 0.613
96 | N#Cc1cccc2c1-c1ccccc1C2=O | 0.237 | 0.623
97 | CCc1cc(CC)c(CO)c(CC)c1CO | 0.265 | 0.622
98 | COc1cccc(N2CCN(CC3CC4C=CC3C4)CC2)c1 (stereo not given) | 0.296 | 0.627
99 | CCN1CCC(N2CCN(c3ccc(Cl)cc3)CC2)CC1 | 0.26 | 0.628
100 | O=C1CC(N2CCOCC2)C(=O)N1c1cccc(Cl)c1 (stereo not given) | 0.247 | 0.609
101 | O=C(Cn1c(NCCCO)nc2ccccc21)c1ccccc1 | 0.229 | 0.622
102 | O=C(CSc1nc2ccccc2[nH]1)c1ccc(Cl)c(Cl)c1 | 0.256 | 0.601
103 | Cc1[nH]nc2c1C(c1ccccc1I)C(C#N)=C(N)O2 (stereo not given) | 0.233 | 0.613
104 | O=C(NCC1CCCO1)c1sc2ccccc2c1Cl (stereo not given) | 0.27 | 0.633
105 | CCN(Cc1ccccc1)C(=O)Cc1ccccc1 | 0.262 | 0.642
106 | CCCn1[nH]cc(SC)c(=O)c1=O | 0.238 | 0.633
107 | O=c1[nH]c(/C=C/c2cccc(Br)c2)c([N+](=O)[O-])c(=O)[nH]1 | 0.247 | 0.617
108 | O=C(CSc1nc2ccccc2s1)Nc1ccccc1Br | 0.239 | 0.609
109 | O=C([C@@H]1C[C@@H]1c1ccccc1)N1CCOCC1 | 0.26 | 0.641
110 | CCN(CCN(C)C)Cc1cccc(Cl)c1 | 0.251 | 0.633
